# Source: patent publication US10583109B2, “Use of silver(I) complexes as anticancer agents” (University of Johannesburg, priority 2012, dated 2020)
# Some results were stated once for a whole list of compounds, not compound by compound. For at least one compound, name, drawing or mass did not settle the structure.
# How the values were obtained:
# [1] = test system: SNO-oesophageal cancer cells; assay: Flow cytometric analysis (Annexin-V FITC / PI) of apoptosis and/or necrosis in SNO-oesophageal cancer cells; type: cell-based; conditions: 14 μM, 24 hours
# Method: To determine if either apoptosis or necrosis occurred, the cells were double labelled with Annexin-V FITC and Propidium Iodide (PI) by means of an Annexin-V FITC assay kit (Serotec, UK). This was done according to manufacturer's instructions with a few adjustments. Briefly, the cells (±3×10^5 cells/ml) were washed twice with cold phosphate buffered saline (PBS), followed by the addition of 100 μl 1× binding buffer. Two and a half microliters of Annexin-V along with 5 μl PI were added in the dark and was incubated for 15 minutes at room temperature. After incubation, 400 μl 1× binding buffer was added and cells were analysed using the FACSAria flow cytometer (BD Biosciences, San Jose, Calif.) with FACSDiva software (BD Biosciences, San Jose, Calif.) 492 nm (excitation) and 520 nm for Annexin and 488 nm and 575 nm(emission) for PI.
# The cell membrane contains a negatively charged phosphatidylserine (PS) on the inner leaflet and is exposed when apoptosis or necrosis takes place. […]
# Pie charts representing the four different flow cytometric quadrants of Annexin-V and […] to determine the mode of cellular death induced in differentially treated SNO-oesophageal cells are represented in FIG. 9. […] An average percentage was calculated for all segments where the SEM is n=3 for all treatments except for 15% H2O2 (n=2). […]
# [2] = test system: A375 malignant melanoma cancer cells; assay: Celltitre-Glo Luminescent Cell Viability Assay (ATP) in A375 cells; type: cell-based, human; conditions: 10 μM, percentage of 1.0% DMSO vehicle control
# Method: For purposes of the Celltitre-Glo™ Luminescent Cell Viability [Promega, USA] assay, a 1:1 mixture of cell sample to Celltitre-Glo™ substrate/buffer mix reagent, in duplicate, was added to 96-well black plate, shaken for 30 seconds at room temperature and then further incubated for 30 minutes. Whole luminescence was then measured with a Synergy HT Multi-Detection Microplate Reader. The CytoTox-ONE™ Homogenous Membrane Integrity [Promega, USA] assay is a rapid fluorescent assay that measures the level of lactate dehydrogenase leaked from damaged membranes, therefore, the amount of fluorescence measured is directly proportional to the amount of lysed/damaged cells. In triplicate, a 1:1 cell sample to CytoTox-ONE™ substrate/buffer mix reagent was added to a 96-well clear plate, shaken for 30 seconds followed by incubation for 10 minutes. A CytoTox-ONE™ stop solution was added to each sample followed by a further 30 second shake on an orbital shaker. […] The fluorescence was then measured with a Synergy HT Multi-Detection Microplate Reader at an excitation wavelength of 530 nm and emission wavelength of 590 nm. FIG. 25 depicts the percentage ATP and Lactate Dehydrogenase (LDH) measured in differentially treated A375 malignant melanoma cancer cells as determined by the Celltitre-Glo™ Luminescent Cell Viability Assay and CytoTox-ONE™ Membrane Integrity Assay respectively. […]
Compound,"apoptotic cells (early and late stages), flow cytometry [1]",ATP levels (cellular viability) [2]
AgCN(PPh3)3 [complex (12)],over 80%,–
"O=[N+]([O-])[O-].[Ag+].c1ccc(P(c2ccccc2)c2ccccc2)cc1.c1ccc(P(c2ccccc2)c2ccccc2)cc1.c1ccc(P(c2ccccc2)c2ccccc2)cc1 [complex (14), AgNO3(PPh3)3]",–,less than 20%
"[Cl][Ag]([PH](c1ccccc1)(c1ccccc1)c1ccccc1)([PH](c1ccccc1)(c1ccccc1)c1ccccc1)[PH](c1ccccc1)(c1ccccc1)c1ccccc1 [complex (10), AgCl(PPh3)3]",over 80%,–
